According to patent US20040110684A1:
Results are given in words; binding and its absence hold for the method and conditions named. For some of these results: Binding seen in cells or lysates may run through a third protein. Some binding calls cover weakened binding; strength is not graded here.

The chains behind the UniProt entries cited, without tags or fusion partners. Residues count along the entry.
UniProt P08238, residues 2-724: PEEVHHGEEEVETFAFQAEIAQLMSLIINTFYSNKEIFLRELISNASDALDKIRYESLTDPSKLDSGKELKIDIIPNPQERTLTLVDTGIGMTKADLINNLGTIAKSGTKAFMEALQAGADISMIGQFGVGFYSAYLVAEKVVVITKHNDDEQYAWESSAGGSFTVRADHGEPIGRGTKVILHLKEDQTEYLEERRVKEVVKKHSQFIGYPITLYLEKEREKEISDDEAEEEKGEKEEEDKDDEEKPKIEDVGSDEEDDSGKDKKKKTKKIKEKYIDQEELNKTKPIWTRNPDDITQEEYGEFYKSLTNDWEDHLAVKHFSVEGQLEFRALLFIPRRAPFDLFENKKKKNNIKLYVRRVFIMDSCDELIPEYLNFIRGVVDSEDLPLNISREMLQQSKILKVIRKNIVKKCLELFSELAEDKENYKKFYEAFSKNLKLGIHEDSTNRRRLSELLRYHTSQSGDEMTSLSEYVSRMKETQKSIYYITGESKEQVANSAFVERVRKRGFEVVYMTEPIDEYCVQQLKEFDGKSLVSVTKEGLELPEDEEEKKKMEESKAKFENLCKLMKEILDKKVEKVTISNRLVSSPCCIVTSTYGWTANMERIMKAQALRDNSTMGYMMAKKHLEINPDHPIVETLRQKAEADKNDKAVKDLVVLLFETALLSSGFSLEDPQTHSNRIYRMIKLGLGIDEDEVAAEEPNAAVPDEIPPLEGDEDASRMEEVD
UniProt P31749: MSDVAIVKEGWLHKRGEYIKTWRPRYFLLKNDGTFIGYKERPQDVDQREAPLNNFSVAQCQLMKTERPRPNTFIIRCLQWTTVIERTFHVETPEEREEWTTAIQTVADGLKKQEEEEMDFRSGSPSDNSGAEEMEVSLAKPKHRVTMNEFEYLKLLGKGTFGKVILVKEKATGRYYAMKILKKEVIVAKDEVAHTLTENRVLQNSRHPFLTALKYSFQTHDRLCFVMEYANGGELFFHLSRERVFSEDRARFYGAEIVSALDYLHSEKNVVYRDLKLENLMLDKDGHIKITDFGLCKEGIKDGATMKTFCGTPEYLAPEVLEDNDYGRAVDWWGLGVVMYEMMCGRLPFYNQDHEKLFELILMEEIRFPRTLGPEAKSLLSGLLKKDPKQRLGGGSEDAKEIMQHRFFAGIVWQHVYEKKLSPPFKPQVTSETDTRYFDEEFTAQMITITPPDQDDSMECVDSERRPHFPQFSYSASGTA

What was measured:
[1] = target: hsp90, endogenous, human umbilical vein endothelial cells (HUVECs) (human) (UniProt P08238); assay: co-IP, geldanamycin-treated HUVEC lysates (recap in the discussion of Example 4)
[2] = target: T1, endothelial nitric oxide synthase (eNOS), endogenous, human umbilical vein endothelial cells (HUVECs) (human) (UniProt P29474); assay: eNOS IP, hsp90 immunoblot, HUVEC lysates
T1 sequence (looked up): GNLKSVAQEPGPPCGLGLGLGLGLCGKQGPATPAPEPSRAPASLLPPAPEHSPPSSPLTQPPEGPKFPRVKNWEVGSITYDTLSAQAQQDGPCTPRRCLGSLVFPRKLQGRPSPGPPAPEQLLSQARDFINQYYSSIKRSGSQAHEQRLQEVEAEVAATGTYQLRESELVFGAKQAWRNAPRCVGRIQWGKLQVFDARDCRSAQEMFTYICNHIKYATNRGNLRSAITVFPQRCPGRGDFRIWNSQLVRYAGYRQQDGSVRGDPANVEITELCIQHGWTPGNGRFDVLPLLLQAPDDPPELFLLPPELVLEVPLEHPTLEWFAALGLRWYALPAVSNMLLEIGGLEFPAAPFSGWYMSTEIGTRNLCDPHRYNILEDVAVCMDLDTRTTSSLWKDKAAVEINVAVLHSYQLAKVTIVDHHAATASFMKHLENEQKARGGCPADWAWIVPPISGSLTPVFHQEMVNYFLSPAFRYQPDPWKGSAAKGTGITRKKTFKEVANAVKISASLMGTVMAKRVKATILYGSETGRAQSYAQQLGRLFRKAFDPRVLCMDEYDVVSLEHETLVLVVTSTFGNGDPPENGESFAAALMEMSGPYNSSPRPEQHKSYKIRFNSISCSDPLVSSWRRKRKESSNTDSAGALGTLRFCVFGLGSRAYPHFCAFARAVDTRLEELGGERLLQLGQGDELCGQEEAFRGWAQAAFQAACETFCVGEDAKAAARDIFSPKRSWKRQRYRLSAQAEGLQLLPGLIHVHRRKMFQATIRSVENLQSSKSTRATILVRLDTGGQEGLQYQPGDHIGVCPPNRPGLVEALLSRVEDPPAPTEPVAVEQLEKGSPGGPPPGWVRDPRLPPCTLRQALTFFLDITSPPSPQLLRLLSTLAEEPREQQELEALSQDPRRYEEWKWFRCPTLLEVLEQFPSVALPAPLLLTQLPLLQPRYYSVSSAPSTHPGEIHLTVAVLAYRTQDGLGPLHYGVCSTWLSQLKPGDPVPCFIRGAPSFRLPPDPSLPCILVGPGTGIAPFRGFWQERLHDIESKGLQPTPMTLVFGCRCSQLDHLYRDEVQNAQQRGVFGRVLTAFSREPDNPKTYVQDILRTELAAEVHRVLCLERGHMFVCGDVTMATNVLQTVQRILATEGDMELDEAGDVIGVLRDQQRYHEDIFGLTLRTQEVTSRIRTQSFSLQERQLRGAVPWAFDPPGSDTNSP

[3] = target: T1, endothelial nitric oxide synthase (eNOS), endogenous, human umbilical vein endothelial cells (HUVECs) (human); assay: eNOS IP, hsp90 immunoblot, HUVEC lysates (effect reversed by mevalonate)
[4] = target: T1, endothelial nitric oxide synthase (eNOS), endogenous, human umbilical vein endothelial cells (HUVECs) (human); assay: hsp90 IP, eNOS immunoblot, with residual eNOS in the supernatant; HUVECs after 5 min VEGF
[5] = target: T1, endothelial nitric oxide synthase (eNOS), endogenous, human umbilical vein endothelial cells (HUVECs) (human); assay: co-IP in CHAPS or Triton/molybdate lysis buffer, unstimulated HUVECs (data not shown)
[6] = target: T1, endothelial nitric oxide synthase (eNOS), endogenous, human umbilical vein endothelial cells (HUVECs) (human); assay: eNOS IP, hsp90 immunoblot, VEGF-treated HUVEC lysates
[7] = target: Akt, endogenous, human umbilical vein endothelial cells (HUVECs) (human) (UniProt P31749); assay: co-IP time course, HUVEC lysates
[8] = target: T1, endothelial nitric oxide synthase (eNOS), endogenous, human umbilical vein endothelial cells (HUVECs) (human); assay: co-IP time course, HUVEC lysates
[9] = target: T2, endothelial nitric oxide synthase (eNOS), endogenous, mouse cardiac microvascular endothelial cells (CMECs) (mouse) (UniProt P70313); assay: eNOS IP, hsp90 immunoblot, lysates of ECs recovered from Matrigel (CMECs per paragraph 92)
T2 sequence (looked up): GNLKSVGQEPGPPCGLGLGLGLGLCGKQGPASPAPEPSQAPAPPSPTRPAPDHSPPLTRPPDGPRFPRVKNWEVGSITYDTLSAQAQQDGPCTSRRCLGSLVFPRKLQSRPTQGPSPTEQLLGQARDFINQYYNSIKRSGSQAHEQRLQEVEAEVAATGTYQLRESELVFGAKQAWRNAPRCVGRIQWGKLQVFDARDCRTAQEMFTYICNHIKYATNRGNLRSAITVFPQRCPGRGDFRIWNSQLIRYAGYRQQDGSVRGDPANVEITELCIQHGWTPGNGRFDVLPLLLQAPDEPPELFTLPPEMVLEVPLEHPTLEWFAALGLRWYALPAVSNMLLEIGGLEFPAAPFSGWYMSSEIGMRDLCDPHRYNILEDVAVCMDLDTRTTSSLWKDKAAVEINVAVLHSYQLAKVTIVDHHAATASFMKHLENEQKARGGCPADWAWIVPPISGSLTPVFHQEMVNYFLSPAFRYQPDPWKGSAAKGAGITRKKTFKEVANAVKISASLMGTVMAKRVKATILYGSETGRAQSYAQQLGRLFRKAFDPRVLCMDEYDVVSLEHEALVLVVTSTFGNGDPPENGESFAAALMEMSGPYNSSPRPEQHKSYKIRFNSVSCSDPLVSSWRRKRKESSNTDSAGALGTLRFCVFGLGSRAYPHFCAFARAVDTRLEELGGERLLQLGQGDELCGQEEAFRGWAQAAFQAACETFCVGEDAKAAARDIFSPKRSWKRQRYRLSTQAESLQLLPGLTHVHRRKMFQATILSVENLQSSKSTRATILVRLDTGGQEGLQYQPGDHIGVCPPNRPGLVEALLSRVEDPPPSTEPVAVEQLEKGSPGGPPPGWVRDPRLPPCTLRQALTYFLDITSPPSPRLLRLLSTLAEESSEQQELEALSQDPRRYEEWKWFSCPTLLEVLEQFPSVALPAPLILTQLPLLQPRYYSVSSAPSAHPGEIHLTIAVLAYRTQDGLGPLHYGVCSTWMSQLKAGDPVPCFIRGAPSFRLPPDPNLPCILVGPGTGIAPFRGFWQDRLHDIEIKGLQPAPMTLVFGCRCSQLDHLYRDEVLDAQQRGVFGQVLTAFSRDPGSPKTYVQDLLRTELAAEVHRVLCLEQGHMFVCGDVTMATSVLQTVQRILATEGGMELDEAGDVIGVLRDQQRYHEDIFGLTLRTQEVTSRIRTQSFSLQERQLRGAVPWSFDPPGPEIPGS

[10] = target: T2, endothelial nitric oxide synthase (eNOS), endogenous, mouse cardiac microvascular endothelial cells (CMECs) (mouse); assay: eNOS IP, hsp90 immunoblot, atorvastatin-treated CMEC lysates

Measured: binding

Akt, endogenous, human umbilical vein endothelial cells (HUVECs) (from UniProt P31749 1-480) (enzyme)
binds: [1]

hsp90, endogenous, human umbilical vein endothelial cells (HUVECs) (from UniProt P08238 2-724)
not listed: [1] | [9] | [10]
binds: all other assays above

hsp90, endogenous, mouse cardiac microvascular endothelial cells (CMECs) (from UniProt Q71LX8 2-724)
binds: [9] | [10]
